Source: PubChem BioAssay AID290 (DTP/NCI, 2004)
The list does not hold the whole screen: its compounds were picked by chemical class. Other doses and runs of a compound may be missing. T/C is the treated group as % of the vehicle group. Some T/C values are marked as having no survivor count here; that says nothing about deaths at the dose. Schedules are NCI's codes, taken here to give the interval after Q, in days (D) or hours (H), and the number of doses after X.

Tested on: mice, P1798 lymphosarcoma sc, survival or tumor weight T/C
Assay: NCI In Vivo Anticancer Drug Screen. Data for tumor model P1798 Lymphosarcoma (subcutaneous) in unknown mice
Conditions: T/C endpoint: mean tumor weight, schedule: Q01DX010 (ip), evaluation day not shown, higher T/C = larger tumour
Protocol: The antitumor activity of compounds was measured in mice bearing transplantable tumors. Survival or tumor size were measured and the results are expressed as the measurement made in the treated group (T) divided by the measurement made in the vehicle treated control group (C). The tumor model used in this assay is P1798 Lymphosarcoma (subcutaneous) in unknown mice

[1] = dose: 1.25 mg/kg/injection, vehicle: carboxymethylcellulose (CMC)
[2] = dose: 2.5 mg/kg/injection, vehicle: carboxymethylcellulose (CMC)
[3] = dose: 5.0 mg/kg/injection, vehicle: carboxymethylcellulose (CMC)
[4] = dose: 10.0 mg/kg/injection, vehicle: carboxymethylcellulose (CMC)

| SMILES | T/C [1] | T/C [2] | T/C [3] | T/C [4] | other results |
| --- | --- | --- | --- | --- | --- |
| NC(Cc1cccc(N(CCCl)CCCl)c1)C(=O)O (stereo not given) | 38 % of control [survivor count not shown] | 3 % of control [survivor count not shown] | – | – | T/C (dose: 0.63 mg/kg/injection, vehicle: carboxymethylcellulose (CMC)): 58 % of control [survivor count not shown] |
| O=C(O)CN(CCCl)CCCl | – | – | – | – | T/C (dose: 1.0 mg/kg/injection, vehicle: saline): 81 % of control [survivor count not shown]; T/C (dose: 2.0 mg/kg/injection, vehicle: saline): 72 % of control [survivor count not shown] |
| ClCCN(CCCl)Cc1nc2ccccc2[nH]1 | – | – | 28 % of control [survivor count not shown] | 14 % of control [survivor count not shown] | – |
| CC(C(=O)O)N(CCCl)CCCl (stereo not given) | 97 % of control [survivor count not shown] | 90 % of control [survivor count not shown] | 99 % of control [survivor count not shown] | 47 % of control [survivor count not shown] | – |
| ClCCNCCCl | – | – | – | – | T/C (dose: 3.1 mg/kg/injection, vehicle: carboxymethylcellulose (CMC)): 85 % of control [survivor count not shown]; T/C (dose: 6.25 mg/kg/injection, vehicle: carboxymethylcellulose (CMC)): 80 % of control [survivor count not shown]; T/C (dose: 12.5 mg/kg/injection, vehicle: carboxymethylcellulose (CMC)): 59 % of control [survivor count not shown]; T/C (dose: 25.0 mg/kg/injection, vehicle: carboxymethylcellulose (CMC)): 39 % of control [survivor count not shown] |
